No constants are given. Whether binding was seen depends on the method and setting. For some of these results: A result given as binding can be weak or reduced; the word gives no strength. Sequences can lack the tags named with a protein.

The target in assay [1] is T1, VQ1 (VQ motif-containing protein 1), yeast two-hybrid fusion (Arabidopsis thaliana) (UniProt Q1G3U8).
T1 sequence: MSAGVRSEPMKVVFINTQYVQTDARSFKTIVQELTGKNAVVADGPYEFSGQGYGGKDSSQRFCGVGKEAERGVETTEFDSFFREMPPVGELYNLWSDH
The assay can be described thus: two-hybrid; Matchmaker Gold mating system: Y2HGold with GAL4-BD baits mated with Y187 with GAL4-AD preys; diploids on SD/QDO (-Ade/-His/-Leu/-Trp); empty BD or AD clones as controls.

Assay [2] addresses T2, VQ10 (VQ motif-containing protein 10), yeast two-hybrid fusion (Arabidopsis thaliana) (UniProt Q8VYI5).
T2 sequence: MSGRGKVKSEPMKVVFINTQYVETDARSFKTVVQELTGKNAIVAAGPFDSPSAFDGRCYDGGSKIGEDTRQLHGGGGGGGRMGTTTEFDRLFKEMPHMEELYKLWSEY
Described as above.

In assay [3] the target is T2, VQ10 (VQ motif-containing protein 10), yeast two-hybrid fusion (Arabidopsis thaliana). The assay is described as follows: condition: only in the orientation BD-VQ10 with AD-VQ27; two-hybrid; Matchmaker Gold mating system: Y2HGold with GAL4-BD baits mated with Y187 with GAL4-AD preys; diploids on SD/QDO (-Ade/-His/-Leu/-Trp); empty BD or AD clones as controls.
In assay [4] the target is VQ27, yeast two-hybrid fusion (Arabidopsis thaliana). The assay can be described thus: two-hybrid; Matchmaker Gold mating system: Y2HGold with GAL4-BD baits mated with Y187 with GAL4-AD preys; diploids on SD/QDO (-Ade/-His/-Leu/-Trp); empty BD or AD clones as controls.

In the case of “VQ24, yeast two-hybrid fusion (Arabidopsis thaliana)”, the binding entry in assay [1] and in assay [2] was “binds” throughout. As for “VQ27, yeast two-hybrid fusion (Arabidopsis thaliana)”, the binding entry in assay [3] is “no binding”; in assay [1], “binds”. “VQ32, yeast two-hybrid fusion (Arabidopsis thaliana)”: the binding result in assay [1] and in assay [2] was “binds” each time.

B1: VQ10 (VQ motif-containing protein 10), yeast two-hybrid fusion (protein, UniProt Q8VYI5 1-108)
chain: T2 sequence
In the case of B1, in assay [4], the binding entry is given as “binds”.

Source of the values: PMC11666741.
